Amino acid sequences for entries named in this document (tags omitted). A change or cut given only in a name is not applied to a line headed by its entry.
UniProt Q9CZD3: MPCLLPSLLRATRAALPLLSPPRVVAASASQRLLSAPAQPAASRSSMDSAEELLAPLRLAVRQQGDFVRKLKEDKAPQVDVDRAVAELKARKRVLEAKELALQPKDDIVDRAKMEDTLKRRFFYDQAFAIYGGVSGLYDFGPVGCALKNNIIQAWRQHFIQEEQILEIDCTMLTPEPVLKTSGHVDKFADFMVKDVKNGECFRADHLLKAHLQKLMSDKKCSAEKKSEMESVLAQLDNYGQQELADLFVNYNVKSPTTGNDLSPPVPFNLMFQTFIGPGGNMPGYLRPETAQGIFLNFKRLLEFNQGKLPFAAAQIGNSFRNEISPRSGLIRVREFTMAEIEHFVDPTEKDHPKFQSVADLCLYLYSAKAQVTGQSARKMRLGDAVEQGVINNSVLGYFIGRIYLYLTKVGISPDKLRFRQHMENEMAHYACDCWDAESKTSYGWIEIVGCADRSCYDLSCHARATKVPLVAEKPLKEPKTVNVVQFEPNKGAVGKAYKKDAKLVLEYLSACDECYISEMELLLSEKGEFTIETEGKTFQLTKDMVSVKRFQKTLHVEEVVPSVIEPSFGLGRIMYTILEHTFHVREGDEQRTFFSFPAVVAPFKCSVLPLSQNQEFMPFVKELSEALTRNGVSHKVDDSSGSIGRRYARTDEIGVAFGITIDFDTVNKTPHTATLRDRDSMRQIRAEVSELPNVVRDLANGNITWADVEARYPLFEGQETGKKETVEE

In article doi:10.1101/2025.05.14.654074:

Target: T1, Recombinant human Nrp1-Fc chimera protein (whole extracellular portion of human Nrp1, C-terminally Fc-tagged) (human) (UniProt O14786)
T1 sequence: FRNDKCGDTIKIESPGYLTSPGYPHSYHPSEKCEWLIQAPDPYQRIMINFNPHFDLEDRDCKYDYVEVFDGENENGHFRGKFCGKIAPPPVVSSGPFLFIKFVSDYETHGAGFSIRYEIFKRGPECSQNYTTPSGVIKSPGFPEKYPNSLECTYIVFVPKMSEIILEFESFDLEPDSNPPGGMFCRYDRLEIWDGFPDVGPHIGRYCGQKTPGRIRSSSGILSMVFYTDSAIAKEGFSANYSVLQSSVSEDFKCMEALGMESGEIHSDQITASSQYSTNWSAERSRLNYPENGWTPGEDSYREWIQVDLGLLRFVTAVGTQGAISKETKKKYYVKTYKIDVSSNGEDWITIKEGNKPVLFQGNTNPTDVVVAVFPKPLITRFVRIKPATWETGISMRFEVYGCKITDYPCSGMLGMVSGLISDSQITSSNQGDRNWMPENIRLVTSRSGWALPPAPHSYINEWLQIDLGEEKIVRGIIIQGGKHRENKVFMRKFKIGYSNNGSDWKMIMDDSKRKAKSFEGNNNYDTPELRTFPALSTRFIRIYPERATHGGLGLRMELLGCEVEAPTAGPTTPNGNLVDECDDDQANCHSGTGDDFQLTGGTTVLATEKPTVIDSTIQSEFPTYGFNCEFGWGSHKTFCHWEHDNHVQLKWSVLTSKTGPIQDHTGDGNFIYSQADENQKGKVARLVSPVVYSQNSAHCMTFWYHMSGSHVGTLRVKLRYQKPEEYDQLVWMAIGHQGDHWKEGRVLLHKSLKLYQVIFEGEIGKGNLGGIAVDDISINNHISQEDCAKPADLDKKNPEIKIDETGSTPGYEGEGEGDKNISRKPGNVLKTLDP
Test: pull-down

binding: binds
Substance: recombinant mouse GlyRS^ΔWHEP (from UniProt Q9CZD3) (enzyme)

Results are given in words; binding and its absence hold for the method and conditions named. Binding calls can cover weak binding; strength is not graded here. Where a sequence is shown, tags or fusion partners need not be part of it.
